Experimental data taken from publication PMC5057127.
These are yes or no findings as the source states them, for the method shown.

Key:
[1] = target: Cicer arietinum galactinol synthase 1 (CaGolS1) (Cicer arietinum (chickpea)); assay: SEC; gel filtration of the recombinant protein on AKTA Prime Plus, column calibrated with molecular weight standards; 20 mM Tris-Cl pH 7.6, 150 mM NaCl, 2 mM beta-ME, 10% glycerol; 0.4 ml/min; both purified
[2] = target: Cicer arietinum galactinol synthase 2 (CaGolS2) (Cicer arietinum (chickpea)); assay: as above

| binding [1] | binding [2] | Substance |
| --- | --- | --- |
| no binding | – | Cicer arietinum galactinol synthase 1 (CaGolS1) (from UniProt A0ACM7D3V3 1-339) (enzyme) |
| – | no binding | Cicer arietinum galactinol synthase 2 (CaGolS2) (from UniProt A0A1S2XWH8 1-325) (enzyme) |
